Data taken from PubChem BioAssay AID1487 (National Center for Advancing Translational Sciences (NCATS), 2009).
The list shows a part of the results. These are further read-outs of the screen, such as a control signal, another cell line or another target. No call is given for them. Compounds called inactive in the main read-out are mostly missing here. Words in brackets tell the shape of the fitted curve; partial curves, single points and poor fits give uncertain potencies.

Assay: qHTS Assay for Modulators of Lamin A Splicing
Conditions: HeLa LMNA splicing GFP/RFP minigene ratio, 48 h
Procedure, shortened: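 S3 HeLa stable clones carrying a lamin A-EGFP splicing minigene plus DsRed2 were seeded at 600 cells/well in Opti-MEM with 2% FBS, pin-dosed and incubated 48 h at 37°C. Acumen cytometry (488 nm) gave the GFP/RFP total-intensity ratio.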

[1] = measured here: GFP splicing reporter channel
[2] = measured here: RFP viability control channel

| Structure (SMILES) | AC50 [1] | AC50 [2] |
| --- | --- | --- |
| C[C@]12C=CC(=O)C=C1CCC1C2C(O)C[C@]2(C)C1CC[C@]2(O)C(=O)CO (some centres undefined) | 35.5 µM [falling, single point] |  |
| COc1ccc(CNC(=O)CCCCCn2c(SCC#N)nc3cc4c(cc3c2=O)OCO4)cc1 | 15.8 µM [rising, single point] |  |
| O=C(Nc1ccc(Oc2ccccc2)cc1)c1cnc2n(c1=O)CCS2 |  | 3.16 µM [rising, full curve] |
| O=C(/C=C/c1cccc([N+](=O)[O-])c1)Nn1c(-c2ccccc2F)nc2ccccc2c1=O | 35.5 µM [rising, single point] | 20 µM [rising, single point] |
| Cc1ccnc(NC(=O)CCC(=O)N(CC(=O)NCc2ccccc2)Cc2ccco2)c1 | 0.398 µM [falling, full curve, poor fit] |  |
| COc1ccc2cc3cc(C(=O)Nc4ccccc4N4CCN(C)CC4)oc3nc2c1 |  | 35.5 µM [falling, single point] |
| CC(=O)N1[C@H](C)C=C[C@]1(Cc1ccccc1)C(=O)NCc1cc(F)cc(C(F)(F)F)c1 |  | 10 µM [rising, partial curve, poor fit] |
| O=C1NC(Cc2c[nH]c3ccccc23)C(=O)N1CCOc1ccc(F)cc1 (centres undefined) | 35.5 µM [rising, single point] | 22.4 µM [rising, single point] |
| Cc1ccc(-c2csc(NC(=O)/C=C/c3cccs3)n2)cc1C | 11.2 µM [rising, partial curve] | 12.6 µM [rising, partial curve] |
| O=C(O)Cc1c[nH]c2ccc(O)cc12 | 0.1 µM [falling, full curve] |  |
| COC(=O)Cc1[nH]nc2c1C(C1C=CCCC1)C(C#N)=C(N)O2 (centres undefined) |  | 8.91 µM [rising, partial curve] |
| Cc1nnc(NC(=O)C2c3ccccc3Oc3ccccc32)s1 |  | 11.2 µM [rising, partial curve] |
| Cc1cc(C)n2c(SCc3nnc(-c4cccs4)o3)nnc2n1 |  | 0.251 µM [falling, full curve, poor fit] |
| COc1ccc(CNC(=O)C(c2ccco2)N(C(=O)CNS(=O)(=O)c2ccccc2)c2ccccc2C)cc1 (centres undefined) | 17.8 µM [rising, single point] | 12.6 µM [rising, single point] |
| CCc1c(C#N)c(SCCC(=O)Nc2ccc(F)cc2)nc2c1C(=O)CC(C)(C)C2 |  | 25.1 µM [rising, single point] |
| CC(C)CCn1c(N2CCc3ccccc3C2)nc2c1c(=O)[nH]c(=O)n2C | 0.01 µM [rising, full curve, poor fit] | 2.51 µM [rising, partial curve, poor fit] |
| CCC1CCCCN1C(=S)Nc1ccc(SC(F)F)cc1 (centres undefined) |  | 22.4 µM [rising, partial curve] |
| Cc1onc(-c2ccccc2)c1C(=O)OCC(=O)Nc1ccc2c(c1)OCO2 | 7.94 µM [rising, partial curve, poor fit] | 11.2 µM [rising, partial curve] |

| Structure (SMILES) | AC50 [1] | AC50 [2] |
| --- | --- | --- |
| O=C(c1ccc(-c2ccc([N+](=O)[O-])cc2)o1)N1CCCCC1 |  | 6.31 µM [rising, partial curve, poor fit] |
| OCc1nc2ccccc2n1C/C=C/c1ccccc1 | 12.6 µM [rising, single point] | 17.8 µM [rising, single point] |
| O=C(CSc1nc2ccc(NC(=O)C3CCCCC3)cc2s1)NCC1CCCO1 (centres undefined) | 14.1 µM [rising, single point] | 11.2 µM [rising, partial curve, poor fit] |
| Cc1ccc(S(=O)(=O)N2CCN(c3ccc([N+](=O)[O-])c4cccnc34)CC2)cc1 |  | 35.5 µM [rising, single point] |
| COc1ccc([N+](=O)[O-])cc1N(CC(=O)NCCC1=CCCCC1)S(C)(=O)=O | 35.5 µM [rising, single point] | 15.8 µM [rising, single point] |
| O=C1NCCN(Cc2ccc(-c3ccccc3)cc2)C1CC(=O)N1CCN(CCO)CC1 (centres undefined) |  | 5.01 µM [falling, single point] |
| NC(=O)c1c(NC(=O)c2ccncc2)sc2c1CCCC2 | 3.55 µM [rising, partial curve] |  |
| COc1ccccc1N1CCN(C(=O)Cc2c(C(=O)O)[nH]c3ccc(Cl)cc23)CC1 |  | 31.6 µM [falling, partial curve, poor fit] |
| Cc1ccc(CCN2CC(C(=O)NCCN3CCOCC3)CC2=O)cc1 (centres undefined) | 28.2 µM [falling, single point] | 31.6 µM [falling, partial curve] |
| COc1ccc(S(=O)(=O)NC(CC(=O)NCC2CCCO2)c2ccco2)cc1 (centres undefined) | 31.6 µM [rising, single point] | 31.6 µM [rising, single point] |
| CCOC(=O)c1ccc(S(=O)(=O)NC2CCCCCCC2)n1C |  | 14.1 µM [rising, single point] |
| COc1ccc(C2CC(c3ccccc3)=NN2C(=O)COC(=O)c2cccnc2Cl)cc1 (centres undefined) |  | 22.4 µM [rising, single point] |
| O=C(NNc1nc(-c2ccccc2)cs1)c1ccco1 | 35.5 µM [rising, single point] | 25.1 µM [rising, single point] |
| O=C(/C=C/c1ccco1)OCC1CCCN2CCCCC12 (centres undefined) | 0.158 µM [falling, partial curve, poor fit] | 0.398 µM [falling, full curve] |
| COc1ccc(CNCC(O)(c2ccc(Cl)cc2)c2ccc(Cl)cc2)cc1OC | 22.4 µM [falling, single point] | 25.1 µM [falling, single point] |
| O=C(CSc1ccc2ccccc2n1)NCCC1=CCCCC1 |  | 35.5 µM [rising, single point] |
| CC(C)(C)OC(=O)N1CCC(c2c(C(=O)Nc3ccc4c(c3)OCCO4)cnn2-c2ccc(F)cc2)CC1 |  | 2.82 µM [falling, partial curve, poor fit] |

Sorted by molar mass (low to high): part of the list above.

| Structure (SMILES) | AC50 [1] | AC50 [2] |
| --- | --- | --- |
| O=C1NC(Cc2c[nH]c3ccccc23)C(=O)N1CCOc1ccc(F)cc1 (centres undefined) | 35.5 µM [rising, single point] | 22.4 µM [rising, single point] |
| COc1ccc([N+](=O)[O-])cc1N(CC(=O)NCCC1=CCCCC1)S(C)(=O)=O | 35.5 µM [rising, single point] | 15.8 µM [rising, single point] |
| CC(C)(C)OC(=O)N1CCC(c2c(C(=O)Nc3ccc4c(c3)OCCO4)cnn2-c2ccc(F)cc2)CC1 |  | 2.82 µM [falling, partial curve, poor fit] |
